PubChem BioAssay AID504784 – Drosophila RNAi Screening Center | 2011

- Aim: 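Search for regulators of lipid droplet storage in oleate-fed fly cells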 (primary screen)
- Cells: Drosophila Kc167 embryonic cells
- Reagents: long dsRNA against Drosophila genes, about 250 ng dsRNA per well
- Timing: 4 days
- Treatment: cells fed 400 µM oleic acid bound to BSA
- Read-out: 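Microscope images give a droplet-to-nucleus area ratio, taken as log and converted to a screen-wide B-score; higher values mean greater lipid storage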
- Reading the numbers: droplet/nuclear area B-score: higher = more stored lipid (overstorage)
The deposit covers about 17,000 reagents; shown is a random part of those that have a named target and a result. 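Each column is one replicate's B-score; the combined score over replicates was not deposited, so single values may mislead.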 The numbers tell different reagents against one gene apart. A plus sign joins genes that one reagent is predicted to hit. Reagent sequences are not shown.

no.	gene knocked down	reagent	droplet/nuclear area B-score, replicate 1	droplet/nuclear area B-score, replicate 2	droplet/nuclear area B-score, replicate 3
1	CG15399	1	-2.48	1.81	
2	MRP	1	0.947	1.33	
3	CAH5	1	0.321		
4	CG9519	1	-1.31	-0.472	0.696
5	SWIP	1	0.41	-3.86	
6	Phm	1	-0.0849	0.062	
7	Ir94a	1	-0.425	-0.167	
8	CG3288	1	0.538	0.133	
9	CG3760	1	2.78	4.03	
10	fd3F + CG42499 (retired record)	1	0.241	0.59	
11	fd3F + CG42499 (retired record)	2	0.624	2.1	
12	CG6984	1	3.55	-4.02	
13	CG15563	1	0.0599	-0.088	
14	Ctl2	1	0.728	-0.688	
15	NimC3	1	-0.542	0.000502	
16	NimC3	2	-0.687	-0.0666	
17	CG17266	1	-0.459	0.0596	
18	CG17266	2	0.708	0.193	
19	CG9915	1	-1.03	-1.18	
20	CG6472	1	4.27	-1.55	
21	pie	1	-0.17	0.27	
22	CG8613	1	-0.0556	0.219	
23	Obp22a	1	-0.292	1.47	
24	Pgant5	1	1.95	-3.14	
25	Ir67b	1	-0.937	-1.15	
26	CG6420	1	-1.42	-1.08	
27	t-cup	1	-0.397	-0.618	
28	lncRNA:roX1	1	0.826	-0.385	
29	CG32645	1	-0.735	-0.00446	-0.411
30	CG32645	2	0.584	-2.11	1.15
31	CG34460	1	-0.0184	0.845	
32	btz	1	2.41		
33	CG3270	1	0.565	-0.189	
34	CG31468	1	-1.16	-0.829	

Sorted by “droplet/nuclear area B-score, replicate 1” (low to high): some entries from above
gene knocked down	reagent	droplet/nuclear area B-score, replicate 1	droplet/nuclear area B-score, replicate 2	droplet/nuclear area B-score, replicate 3
CG3270	1	0.565	-0.189	
btz	1	2.41		
